The nature of this data set: general procedure: Fmoc solid-phase peptide synthesis; CTC resin; HBTU/DIPEA; HATU/DIPEA for Fmoc-Dab(Alloc)-OH; TBTU/HOBt for cyclisation. The following applies: whole synthesis, scale 1 mmol, trifluoroacetate salt.

Regarding “Boc-Dab(Dde)-Thr(OtBu)-Dab(Dde)-Dab*-Dab(Dde)-[D-Phe]-Leu-Dab(Dde)-Dab(Dde)-Thr(OtBu)*”, the isolated mass was determined as 80 mg.

Values taken from patent US11014966B2 (priority 2016, dated 2021).
